Consider one substance from publication PMC12581659.

Protein sequences, listed by entry. Tags and fused reporters are not part of them. Lines headed by an entry give the natural chain unless they say otherwise; changes in a name come on top.
UniProt P06804: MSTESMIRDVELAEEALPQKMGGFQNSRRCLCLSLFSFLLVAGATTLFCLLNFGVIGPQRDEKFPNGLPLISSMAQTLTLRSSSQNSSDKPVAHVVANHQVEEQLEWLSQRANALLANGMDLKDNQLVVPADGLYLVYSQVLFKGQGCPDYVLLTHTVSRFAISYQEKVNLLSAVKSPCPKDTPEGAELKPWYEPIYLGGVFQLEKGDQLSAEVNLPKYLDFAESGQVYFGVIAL
UniProt Q6ZWS8: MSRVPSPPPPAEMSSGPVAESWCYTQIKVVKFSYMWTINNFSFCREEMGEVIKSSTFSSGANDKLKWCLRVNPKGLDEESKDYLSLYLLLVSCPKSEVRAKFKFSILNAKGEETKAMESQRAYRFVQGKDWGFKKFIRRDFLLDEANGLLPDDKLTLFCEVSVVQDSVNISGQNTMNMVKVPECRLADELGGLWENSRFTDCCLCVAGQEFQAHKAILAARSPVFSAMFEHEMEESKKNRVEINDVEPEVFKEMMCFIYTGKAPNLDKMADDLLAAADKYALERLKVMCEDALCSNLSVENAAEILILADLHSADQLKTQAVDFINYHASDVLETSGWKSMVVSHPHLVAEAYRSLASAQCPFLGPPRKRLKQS

Results are given in words; binding and its absence hold for the method and conditions named. Binding seen in cells or lysates may run through a third protein.

This test has as its target FLAG-TNF-α (UniProt P06804). Nature of the test: co-IP; SPOP+/+ and SPOP-/- MEFs stimulated by FLAG-TNF-α for the indicated periods of time; TNF-RSC immunoprecipitated using anti-Flag resin, immunoblot. Background: In western blotting, separated proteins are transferred to a membrane and probed.

Take “speckle-type POZ protein (SPOP), endogenous in MEFs (from UniProt Q6ZWS8 1-374)”: the binding result is “no binding”.
